In article doi:10.1101/2025.05.19.654886 one finds binding data, which are given here for 1 substance.

Protein sequences, listed by entry. Tags and fused reporters are not part of them. Residues count along the entry.
UniProt P56962, 1-224: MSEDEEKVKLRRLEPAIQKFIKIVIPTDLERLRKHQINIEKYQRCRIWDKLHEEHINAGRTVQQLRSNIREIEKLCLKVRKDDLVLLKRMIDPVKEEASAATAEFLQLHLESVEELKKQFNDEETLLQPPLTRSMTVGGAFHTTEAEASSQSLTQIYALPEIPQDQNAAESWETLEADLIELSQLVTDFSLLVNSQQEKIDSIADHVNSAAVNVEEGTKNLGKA
UniProt O95721, whole entry: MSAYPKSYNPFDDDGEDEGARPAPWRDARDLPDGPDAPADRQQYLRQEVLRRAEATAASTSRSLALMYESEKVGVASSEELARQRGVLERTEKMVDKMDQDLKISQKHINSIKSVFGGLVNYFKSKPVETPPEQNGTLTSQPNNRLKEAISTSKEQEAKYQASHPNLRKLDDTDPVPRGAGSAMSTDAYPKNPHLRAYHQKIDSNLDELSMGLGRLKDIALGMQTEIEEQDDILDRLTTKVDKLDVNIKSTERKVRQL

Test [1] concerns the target GST-STX17 (amino acids 1-224) (UniProt P56962). Nature of the test: co-IP.
Test [2] deals with SNAP29 (purified, unmodified) (UniProt O95721). The test can be described thus: co-IP.

Results are given in words; binding and its absence hold for the method and conditions named. Binding seen in cells or lysates may run through a third protein. Binding can be weak; no strength is given.

As for “VAMP8 (purified, bought) (from UniProt O70404)”, the binding entry in test [1] and in test [2] was “binds” in each case.
